Test results: publication PMC3579733
These are yes or no findings as the source states them, for the method shown. Binding seen in cells or lysates may run through a third protein. A yes stands for co-enrichment or nearness to the bait. Other partners may have been found. For some of these results: A no says only that the protein was not detected with the bait.

By UniProt entry, the sequences of proteins in these tests, tags left out.
UniProt B0R470: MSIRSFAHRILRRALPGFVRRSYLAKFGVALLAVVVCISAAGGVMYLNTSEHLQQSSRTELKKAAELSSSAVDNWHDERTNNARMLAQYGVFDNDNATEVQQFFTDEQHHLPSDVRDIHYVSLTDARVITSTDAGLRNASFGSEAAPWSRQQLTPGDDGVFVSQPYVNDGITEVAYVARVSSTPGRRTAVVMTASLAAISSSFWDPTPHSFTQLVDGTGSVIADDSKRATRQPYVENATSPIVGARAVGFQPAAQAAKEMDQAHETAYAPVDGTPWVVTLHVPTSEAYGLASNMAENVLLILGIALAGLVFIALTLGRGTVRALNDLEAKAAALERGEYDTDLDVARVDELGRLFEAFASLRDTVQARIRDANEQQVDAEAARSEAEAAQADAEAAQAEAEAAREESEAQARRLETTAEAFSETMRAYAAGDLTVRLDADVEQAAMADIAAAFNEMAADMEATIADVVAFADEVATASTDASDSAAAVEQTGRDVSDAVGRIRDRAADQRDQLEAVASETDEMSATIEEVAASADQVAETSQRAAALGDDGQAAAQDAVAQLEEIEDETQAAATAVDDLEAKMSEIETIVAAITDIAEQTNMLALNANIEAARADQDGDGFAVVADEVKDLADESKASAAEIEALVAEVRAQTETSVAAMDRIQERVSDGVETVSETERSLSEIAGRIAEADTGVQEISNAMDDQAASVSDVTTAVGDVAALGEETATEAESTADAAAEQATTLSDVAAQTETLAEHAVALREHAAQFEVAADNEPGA

Assays:
[1] = biological target: T1, CheW1 (Halobacterium salinarum R1 (DSM 671)) (UniProt Q9HQW5); experiment: affinity purification with mass spectrometry; one-step and two-step bait fishing taken together (final data set; both methods applied to all baits); the place does not tell which of the two gave the result
T1 sequence: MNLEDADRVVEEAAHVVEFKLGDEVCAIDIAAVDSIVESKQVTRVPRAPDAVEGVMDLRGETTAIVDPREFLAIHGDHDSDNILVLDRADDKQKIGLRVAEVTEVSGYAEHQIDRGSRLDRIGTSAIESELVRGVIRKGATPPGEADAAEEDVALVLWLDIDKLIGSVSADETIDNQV

[2] = biological target: T2, CheY (Halobacterium salinarum R1 (DSM 671)) (UniProt B0R4K1); experiment: as above
T2 sequence: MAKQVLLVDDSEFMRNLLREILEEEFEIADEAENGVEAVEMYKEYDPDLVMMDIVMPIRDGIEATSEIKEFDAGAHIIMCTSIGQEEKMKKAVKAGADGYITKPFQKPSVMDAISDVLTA

[3] = biological target: T1, CheW1 (Halobacterium salinarum R1 (DSM 671)); experiment: affinity purification with mass spectrometry; comparative two-step bait fishing: CheW1 on one cellulose column with light (12C) lysate, CheW2 on a second column with heavy (13C) lysate, the second CheW as control instead of plain CBD; only the target purified
[4] = biological target: T3, CheW2 (Halobacterium salinarum R1 (DSM 671)) (UniProt Q9HQY8); experiment: as above
T3 sequence: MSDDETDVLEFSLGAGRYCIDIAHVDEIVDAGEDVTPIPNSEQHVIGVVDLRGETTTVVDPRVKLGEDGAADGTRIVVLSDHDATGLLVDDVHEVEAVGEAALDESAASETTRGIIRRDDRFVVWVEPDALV

[5] = biological target: T3, CheW2 (Halobacterium salinarum R1 (DSM 671)); experiment: affinity purification with mass spectrometry; two-step bait fishing: bait-CBD bound to a cellulose column and stringently washed (CFE + 1% NP40 + 20% ethylene glycol), then incubated with lysate of wild type cells (12C6-leucine); plain CBD column with 13C6-leucine lysate as control; SILAC, association score > 7 counts as interaction; only the target purified
[6] = biological target: T4, CheA (Halobacterium salinarum R1 (DSM 671)) (UniProt B0R4J9); experiment: affinity purification with mass spectrometry; one-step bait fishing: lysates of the bait-CBD strain (13C6-leucine) and of the bait-control strain without CBD (12C6-leucine) mixed, one cellulose column, CFE buffer (3 M KCl, 1 M NaCl, 400 mM NH4Cl, 40 mM MgCl2, 10 mM Tris/HCl pH 7.5), washes with 0.5% NP40, room temperature; SILAC, association score > 7 counts as interaction
T4 sequence: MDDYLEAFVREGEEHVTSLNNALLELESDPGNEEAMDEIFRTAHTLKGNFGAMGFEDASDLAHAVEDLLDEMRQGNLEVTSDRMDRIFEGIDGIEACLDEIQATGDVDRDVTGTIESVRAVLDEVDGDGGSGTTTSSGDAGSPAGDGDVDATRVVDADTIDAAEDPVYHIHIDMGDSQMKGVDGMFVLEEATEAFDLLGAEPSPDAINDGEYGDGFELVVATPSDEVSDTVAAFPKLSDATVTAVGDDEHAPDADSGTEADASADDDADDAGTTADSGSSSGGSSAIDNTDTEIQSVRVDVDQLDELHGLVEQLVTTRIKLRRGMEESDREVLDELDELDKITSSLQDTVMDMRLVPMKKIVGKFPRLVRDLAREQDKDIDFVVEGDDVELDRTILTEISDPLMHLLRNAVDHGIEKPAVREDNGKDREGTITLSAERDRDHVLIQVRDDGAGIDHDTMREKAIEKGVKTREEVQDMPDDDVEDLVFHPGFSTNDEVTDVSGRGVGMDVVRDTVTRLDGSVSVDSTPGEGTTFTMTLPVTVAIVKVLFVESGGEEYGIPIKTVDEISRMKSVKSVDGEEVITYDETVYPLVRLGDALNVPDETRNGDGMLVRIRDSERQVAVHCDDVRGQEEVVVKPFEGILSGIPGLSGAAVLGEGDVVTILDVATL

[7] = biological target: CheD (Halobacterium salinarum R1 (DSM 671)); experiment: affinity purification with mass spectrometry; one-step and two-step bait fishing taken together (final data set; both methods applied to all baits); the place does not tell which of the two gave the result
[8] = biological target: OE4643R (Halobacterium salinarum R1 (DSM 671)); experiment: as above

Molecule | binding [1] | binding [2] | binding [3] | binding [4] | binding [5] | binding [6] | binding [7] | binding [8]
Htr4 (from UniProt B0R470 1-778) (receptor) | binds | binds | binds | binds | binds | binds | – | –
OE4643R (Halobacterium salinarum R1 (DSM 671)) | no binding | no binding | – | – | – | binds | – | –
PurNH (OE1620R) (Halobacterium salinarum R1 (DSM 671)) (enzyme) | binds | binds | binds | – | – | binds | – | –
HtrI (receptor, UniProt B0R632 1-536) MTIAWARRRYGVKLGLGYIATAGLLVGVGVTTNDVPSTIVAGIAGLLTLGSINAAETVASIKEIAAQTERVANGNLEQEVTSTRTDEFGSLADSIEQMRQSLRGRLNEMERTRADLEETQAEAETAREEAEQAKQEAQAAEREARELAATYQDTAKRYGETMEAAATGDLTQRVDVDTDHEAMETVGTAFNQMMDDLQATVRTVTTVADEIEAKTERMSETSADIEASAGDTVEAVSKIESQANDQRTELDSAADDVQQVSASAEEIAATIDDLASRSEDVATASDAARDSSKSALDEMSSIETEVDDAVGQVEQLRDQVAEITDIVDVITDIGEQTNMLALNASIEAARAGGNADGDGFSVVADEVKDLAEETQDRANEIAAVVEKVTAQTEDVTASIQQTRTRVESGSETVESTLRDIRTIADSIAEVSNSIDEIQRTTSEQAETVQSTATSVERVAGLSDDTTALASDAESAVIGQRESAEEIAASLEQFQNTAVEQLQSRVASFTVATEDSETAGGSVEQPVMRAGADGGGA | binds | binds | binds | binds | binds | binds | no binding | no binding
BasT (receptor, UniProt B0R6I4 1-805) MSDIDRGLFERVLPARIRGSYAAKFNVLLLVVVIIVAAAGGYIHLQTQSTVGENTERRVSGIAEQQAATLHDWLTQKESTTTFLASNIGGDAVRTSDVKPQLERQLATLQQDVRAIHVVSTSQDTVVASTDDARSGTTLQAGDAPWLSTIEDGTTDVSVSDPYEVDDSPVVAMTAPTDKPGWVLVMTMSLAQHSQSFNSPIATGDVKVVNGDGVITLDNRNRALLEQYTDTAGNVPAAVATARSGQTVYNTEPERTGMDDGRYATAYTPVAGTDWVLTYHVPRGQAYALQSEVTQNLAGLVVVALVGLLLVGLTVGRRTSSALDELAGVAAAIADGDLDTTIPDTDRTDELGQLVGAFGEMQTYLTTAASQADALADQNFDADVLDEDLPGAFGASLSQMHTRLEALITDLDEAREDAEQTRKDAEEARAASERLNERLERRAAEYSDEMAAAAAGDLTRRLDEDVDSEPMQDIAEAFNDMMGDVEATLAQVRSIADAVDAASTDVSTSAAEIRSASDQVSESVQDISADADQQRDRLGTVGDEVTSLSATVEEIAASADDVAETVNQAATESERGQELGEDAVAELERIEATADSAVERVTALEEAVDAIGDVTGVITDIAEQTNMLALNANIEAARADKSGDGFAVVADEVKDLADEVKESATEIETLVDDVQADVADTVADMSELGDRVDAGSETIEAALAALDDIGDQVEAANGSVQSISDATDEQAASTEEVVTMIDEVTDLSDRTATESQQVSAAAEEQAASVSEVAGRADDLDDQVSTLNDLLDQFDARAASADTDEN | binds | binds | binds | binds | binds | binds | no binding | no binding
MpcT (receptor, UniProt B0R367 1-627) MNITQAYKRSLWWSMDMVGATGSVERKMLTAVGLQFLAAGGMAFLTVFTAGTVQLIGVGGMLALSVVAFYNTYLIAEADFVEPLVALEDAADDIAAGEFERADIPSSKRDDEIASLVASFDGMQSNLEVASRQADALARQAFDDPALDESVPGAFGESITEMADSLEAYTAELEDKTAELEHQQAELERQSEQLRALVDALSEATDAARAGDLTATVDAAALDVTDDHRAAVEDFNQLLETLADTISDIQSFSDAVLAVSRTTDERVDAVADRSAAVSESVTEIADGANQQTNQLNNIAAEMDTVSATVEEIAASANDVAKTAQAAADRGEDGRGEVEETIEALRALREQSQAVAETVESLAAEVERIDGITALIEDIAEETNMLALNASIEAARTGSDGDGFAVVADEVKDLAEETREQAADISEIVDAVTEKAEDASIAIGEVDAEVERKITKAEGVLRDFEAIVDEVANVNHAVQEISDATDQGAQSVTDVVGMVEEVASVSEETAAESDTVADNAAEQTDATDEVADQMDELAEQTAALAGMLDDFTVPADAGTADQSVADDSPTAQPPAADDEPAAAVVDQPQPASDAEDEEGVPDSGGESVAVSDGGWADDRSSFTWADSQ | binds | binds | binds | – | – | binds | no binding | no binding
CheF1 (protein, UniProt B0R4J3 1-290) MSESEYKIADGSGKFLQAVKDGRRMKDAQWSKGRILLSNKRIVLAGSEGKRNLPLSEVQGLSGRHDVNQTVAKVGNYVSIRMTNESVMLVSLGDNTETFESKLYGALLDQTELQVKHPAVEGGVVTDEQFERARIKVDESELSVAMSNGSFVSVELDDVGSAEAASLEVNGDTKPVLKVEHTVNRDTSVQTYFATDSHTASILESLLTKEAEKSQGSVELSETEKRVLMALYSGVSSFEIPDFLGMDVDEVESIFERLIEVDVLEEVRKRREVTMKTRGRNIASEAINEE | – | binds | – | – | – | – | – | –
CheF2 (protein, UniProt B0R4J4 1-287) MSESAIADFVSSFIPDTATHVEPVRGRVVMSKRRIVLAADDEKTTIPLNGVFDVQHETAPGDLARFFEDTVTIAYEHDEDRHVAVIEGGGSTVDRFVTLVFKALVHGTTVYAKHPARRGGRITDQPFEKGNLALSPGDLTITGDADTTIDLSTVSHFERVDREVNGSNKQLLSVRHMGSTGPITTELALSSGRKMNLLGRYIRLQYTHLKQELADVTLTSEEIEALVAIYSSGPNASLAAVLGVDASRVTMLLNDLIEKELVTDDDGIALTSLGRAAVSEHIEDVNL | – | binds | – | – | – | – | – | –
